This is an account of results in publication PMC11231337.

Protein sequences, listed by entry. Tags and fused reporters are not part of them. Residues count along the entry.
UniProt Q9NZQ7, residues 19-290: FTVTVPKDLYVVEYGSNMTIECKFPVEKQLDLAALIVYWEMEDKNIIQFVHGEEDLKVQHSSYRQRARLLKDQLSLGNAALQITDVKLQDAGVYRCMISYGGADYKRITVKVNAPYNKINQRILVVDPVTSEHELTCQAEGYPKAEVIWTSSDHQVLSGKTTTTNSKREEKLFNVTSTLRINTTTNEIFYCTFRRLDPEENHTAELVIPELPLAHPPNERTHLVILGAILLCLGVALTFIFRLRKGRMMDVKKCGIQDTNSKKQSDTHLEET

Results are given in words; binding and its absence hold for the method and conditions named. In cells and extracts the contact can be indirect. Some binding calls cover weakened binding; strength is not graded here. For part of these data: Where a sequence is shown, tags or fusion partners need not be part of it.

The target in experiment [1] is Flag-tagged PD-L1 (human) (UniProt Q9NZQ7). The experiment in a line: co-IP; HEK293T cells transfected with Flag-tagged PD-L1 and Myc-tagged PPM1B for 48 h; immunoprecipitation followed by immunoblotting. On the technique in general: Immunoblotting shows a protein as a band on a membrane.
For experiment [2], the target named is PD-L1 overexpressed in A549 cells (human) (UniProt Q9NZQ7). The experiment in a line: co-IP; co-immunoprecipitation with PD-L1 from A549 and H460 cells (PD-L1 overexpressing vector or PD-L1 siRNA, 24 h); immunoblot for PPM1B and p38 MAPK; also after 24 h treatment with rhPD-1 (1 μg/ml).
In experiment [3] the target is endogenous PD-L1 (human (endogenous in H460 and A549)) (UniProt Q9NZQ7). Described as above.

B1: Myc-tagged PPM1B (enzyme, UniProt O75688 1-479)
chain: MGAFLDKPKTEKHNAHGAGNGLRYGLSSMQGWRVEMEDAHTAVVGIPHGLEDWSFFAVYDGHAGSRVANYCSTHLLEHITTNEDFRAAGKSGSALELSVENVKNGIRTGFLKIDEYMRNFSDLRNGMDRSGSTAVGVMISPKHIYFINCGDSRAVLYRNGQVCFSTQDHKPCNPREKERIQNAGGSVMIQRVNGSLAVSRALGDYDYKCVDGKGPTEQLVSPEPEVYEILRAEEDEFIILACDGIWDVMSNEELCEYVKSRLEVSDDLENVCNWVVDTCLHKGSRDNMSIVLVCFSNAPKVSDEAVKKDSELDKHLESRVEEIMEKSGEEGMPDLAHVMRILSAENIPNLPPGGGLAGKRNVIEAVYSRLNPHRESDGASDEAEESGSQGKLVEALRQMRINHRGNYRQLLEEMLTSYRLAKVEGEESPAEPAATATSSNSDAGNPVTMQESHTESESGLAELDSSNEDAGTKMSGEKI
Consider B1, for which the binding entry in experiment [1] is “binds”.

B2: endogenous PPM1B (enzyme, UniProt O75688 1-479)
chain: MGAFLDKPKTEKHNAHGAGNGLRYGLSSMQGWRVEMEDAHTAVVGIPHGLEDWSFFAVYDGHAGSRVANYCSTHLLEHITTNEDFRAAGKSGSALELSVENVKNGIRTGFLKIDEYMRNFSDLRNGMDRSGSTAVGVMISPKHIYFINCGDSRAVLYRNGQVCFSTQDHKPCNPREKERIQNAGGSVMIQRVNGSLAVSRALGDYDYKCVDGKGPTEQLVSPEPEVYEILRAEEDEFIILACDGIWDVMSNEELCEYVKSRLEVSDDLENVCNWVVDTCLHKGSRDNMSIVLVCFSNAPKVSDEAVKKDSELDKHLESRVEEIMEKSGEEGMPDLAHVMRILSAENIPNLPPGGGLAGKRNVIEAVYSRLNPHRESDGASDEAEESGSQGKLVEALRQMRINHRGNYRQLLEEMLTSYRLAKVEGEESPAEPAATATSSNSDAGNPVTMQESHTESESGLAELDSSNEDAGTKMSGEKI
Take B2: the binding entry in experiment [2] and in experiment [3] was “binds” each time.
